Measured values: the supplement of paper PMC10849652
The other results are listed elsewhere or left out.

Chains of the proteins cited; added tags and fusions are not shown. Lines headed by an entry give the natural chain unless they say otherwise; changes in a name come on top.
UniProt Q8TE02: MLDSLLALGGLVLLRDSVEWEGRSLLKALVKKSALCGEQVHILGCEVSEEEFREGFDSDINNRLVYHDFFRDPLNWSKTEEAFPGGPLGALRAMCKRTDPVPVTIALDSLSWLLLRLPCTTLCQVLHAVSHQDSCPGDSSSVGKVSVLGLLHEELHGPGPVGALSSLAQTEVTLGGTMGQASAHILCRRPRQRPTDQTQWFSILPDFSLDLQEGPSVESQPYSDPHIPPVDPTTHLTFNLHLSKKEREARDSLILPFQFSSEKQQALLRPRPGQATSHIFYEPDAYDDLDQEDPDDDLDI
UniProt Q53HC9: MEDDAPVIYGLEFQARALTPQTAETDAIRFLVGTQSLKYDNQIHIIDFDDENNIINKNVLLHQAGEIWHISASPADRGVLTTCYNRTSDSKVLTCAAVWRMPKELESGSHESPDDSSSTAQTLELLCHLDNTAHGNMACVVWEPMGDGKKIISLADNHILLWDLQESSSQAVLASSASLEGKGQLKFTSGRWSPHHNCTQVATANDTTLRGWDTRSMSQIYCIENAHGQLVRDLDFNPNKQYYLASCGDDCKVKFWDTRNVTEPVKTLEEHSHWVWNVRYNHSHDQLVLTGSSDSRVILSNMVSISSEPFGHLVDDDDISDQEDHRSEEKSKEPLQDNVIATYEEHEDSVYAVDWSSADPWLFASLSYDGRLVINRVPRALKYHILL
UniProt Q5UCC4: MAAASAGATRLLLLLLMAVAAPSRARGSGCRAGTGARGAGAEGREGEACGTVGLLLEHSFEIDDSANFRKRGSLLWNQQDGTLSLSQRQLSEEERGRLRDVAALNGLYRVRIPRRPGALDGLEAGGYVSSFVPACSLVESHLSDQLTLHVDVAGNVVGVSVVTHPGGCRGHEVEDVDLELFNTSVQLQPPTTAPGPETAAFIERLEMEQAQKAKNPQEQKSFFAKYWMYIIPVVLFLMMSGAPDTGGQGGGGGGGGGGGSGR
UniProt Q6ZTU2, whole entry, looked up: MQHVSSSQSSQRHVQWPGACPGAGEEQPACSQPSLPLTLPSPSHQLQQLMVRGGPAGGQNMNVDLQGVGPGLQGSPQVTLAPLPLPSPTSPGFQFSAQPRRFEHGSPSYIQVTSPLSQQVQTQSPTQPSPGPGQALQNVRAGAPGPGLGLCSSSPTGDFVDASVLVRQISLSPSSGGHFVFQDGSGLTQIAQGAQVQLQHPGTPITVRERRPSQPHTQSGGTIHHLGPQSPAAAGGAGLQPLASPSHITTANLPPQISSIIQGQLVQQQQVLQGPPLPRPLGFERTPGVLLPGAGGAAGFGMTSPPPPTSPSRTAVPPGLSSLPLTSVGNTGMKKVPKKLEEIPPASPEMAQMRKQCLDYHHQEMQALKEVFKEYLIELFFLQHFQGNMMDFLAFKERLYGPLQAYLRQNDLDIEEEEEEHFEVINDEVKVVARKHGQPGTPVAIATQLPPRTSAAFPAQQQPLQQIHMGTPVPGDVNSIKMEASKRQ
UniProt Q7L775: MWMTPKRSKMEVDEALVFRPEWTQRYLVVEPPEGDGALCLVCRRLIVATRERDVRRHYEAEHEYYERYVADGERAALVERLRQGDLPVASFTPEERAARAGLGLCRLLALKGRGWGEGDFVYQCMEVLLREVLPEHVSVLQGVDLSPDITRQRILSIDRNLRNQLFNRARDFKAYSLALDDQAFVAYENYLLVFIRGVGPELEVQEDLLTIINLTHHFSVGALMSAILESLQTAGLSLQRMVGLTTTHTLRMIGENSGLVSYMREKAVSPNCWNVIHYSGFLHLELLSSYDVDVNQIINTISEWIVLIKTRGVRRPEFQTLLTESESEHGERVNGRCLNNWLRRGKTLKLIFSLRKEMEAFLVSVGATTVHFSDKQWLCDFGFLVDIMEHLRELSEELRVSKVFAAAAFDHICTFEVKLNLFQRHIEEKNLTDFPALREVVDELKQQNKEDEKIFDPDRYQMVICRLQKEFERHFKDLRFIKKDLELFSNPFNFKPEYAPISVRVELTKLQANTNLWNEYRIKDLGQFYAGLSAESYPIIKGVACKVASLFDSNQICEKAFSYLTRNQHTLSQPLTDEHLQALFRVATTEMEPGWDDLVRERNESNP
UniProt P63241: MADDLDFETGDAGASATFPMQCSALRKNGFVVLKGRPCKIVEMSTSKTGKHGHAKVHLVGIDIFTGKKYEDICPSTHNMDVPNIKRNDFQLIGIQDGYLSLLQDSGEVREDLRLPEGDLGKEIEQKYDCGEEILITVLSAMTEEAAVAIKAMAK
UniProt P54760: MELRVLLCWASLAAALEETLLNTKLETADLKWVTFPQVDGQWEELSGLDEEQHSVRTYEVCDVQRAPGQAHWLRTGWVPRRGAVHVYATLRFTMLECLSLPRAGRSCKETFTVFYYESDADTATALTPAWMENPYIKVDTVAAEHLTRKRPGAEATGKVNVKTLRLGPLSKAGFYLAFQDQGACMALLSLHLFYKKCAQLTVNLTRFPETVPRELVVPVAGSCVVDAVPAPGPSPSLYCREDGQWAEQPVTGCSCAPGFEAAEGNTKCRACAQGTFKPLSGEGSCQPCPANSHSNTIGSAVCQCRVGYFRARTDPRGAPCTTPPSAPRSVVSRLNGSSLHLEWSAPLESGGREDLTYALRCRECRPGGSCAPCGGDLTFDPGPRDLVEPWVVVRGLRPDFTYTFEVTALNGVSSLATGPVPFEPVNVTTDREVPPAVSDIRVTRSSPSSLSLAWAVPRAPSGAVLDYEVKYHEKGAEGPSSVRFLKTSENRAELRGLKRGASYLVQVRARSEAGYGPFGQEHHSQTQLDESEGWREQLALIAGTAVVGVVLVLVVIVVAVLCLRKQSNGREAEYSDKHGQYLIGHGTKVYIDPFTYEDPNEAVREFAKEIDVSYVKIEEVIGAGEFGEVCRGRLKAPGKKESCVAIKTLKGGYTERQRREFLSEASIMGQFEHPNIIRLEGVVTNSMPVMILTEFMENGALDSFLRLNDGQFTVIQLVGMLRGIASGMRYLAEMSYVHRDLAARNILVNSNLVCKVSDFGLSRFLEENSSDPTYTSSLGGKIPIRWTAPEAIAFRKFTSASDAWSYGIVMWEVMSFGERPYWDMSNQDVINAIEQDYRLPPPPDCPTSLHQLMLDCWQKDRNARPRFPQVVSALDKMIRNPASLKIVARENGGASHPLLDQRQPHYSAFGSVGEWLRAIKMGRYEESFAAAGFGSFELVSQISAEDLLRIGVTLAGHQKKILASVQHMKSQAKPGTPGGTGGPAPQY
UniProt Q15369, whole entry, looked up: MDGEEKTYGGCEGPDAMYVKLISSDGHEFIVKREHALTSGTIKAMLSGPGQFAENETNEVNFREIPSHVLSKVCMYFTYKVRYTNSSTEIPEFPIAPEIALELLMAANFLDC
UniProt O94919: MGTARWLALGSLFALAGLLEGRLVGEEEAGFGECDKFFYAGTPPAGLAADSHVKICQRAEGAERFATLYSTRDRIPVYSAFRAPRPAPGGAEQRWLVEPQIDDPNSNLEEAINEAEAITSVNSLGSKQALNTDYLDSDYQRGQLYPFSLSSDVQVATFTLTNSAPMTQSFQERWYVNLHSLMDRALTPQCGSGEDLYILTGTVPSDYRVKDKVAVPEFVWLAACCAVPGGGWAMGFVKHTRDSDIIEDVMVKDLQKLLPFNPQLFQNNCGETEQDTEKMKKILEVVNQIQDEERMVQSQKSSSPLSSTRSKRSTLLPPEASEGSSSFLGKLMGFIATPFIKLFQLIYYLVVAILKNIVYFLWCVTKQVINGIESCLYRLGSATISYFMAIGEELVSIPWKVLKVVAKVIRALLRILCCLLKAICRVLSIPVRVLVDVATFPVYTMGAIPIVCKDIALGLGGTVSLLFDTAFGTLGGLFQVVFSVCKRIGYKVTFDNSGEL
UniProt Q96EB1: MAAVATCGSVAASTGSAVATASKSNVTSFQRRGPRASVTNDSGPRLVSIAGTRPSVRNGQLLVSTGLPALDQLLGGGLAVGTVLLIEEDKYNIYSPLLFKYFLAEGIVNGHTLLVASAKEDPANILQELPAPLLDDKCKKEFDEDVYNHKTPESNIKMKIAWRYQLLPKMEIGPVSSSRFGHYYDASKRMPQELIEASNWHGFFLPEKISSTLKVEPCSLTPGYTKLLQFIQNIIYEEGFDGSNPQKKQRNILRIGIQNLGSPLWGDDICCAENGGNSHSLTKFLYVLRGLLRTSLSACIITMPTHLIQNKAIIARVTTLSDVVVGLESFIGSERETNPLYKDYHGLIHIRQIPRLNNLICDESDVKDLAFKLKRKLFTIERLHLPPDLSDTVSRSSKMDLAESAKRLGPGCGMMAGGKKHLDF
UniProt Q04637, whole entry, looked up: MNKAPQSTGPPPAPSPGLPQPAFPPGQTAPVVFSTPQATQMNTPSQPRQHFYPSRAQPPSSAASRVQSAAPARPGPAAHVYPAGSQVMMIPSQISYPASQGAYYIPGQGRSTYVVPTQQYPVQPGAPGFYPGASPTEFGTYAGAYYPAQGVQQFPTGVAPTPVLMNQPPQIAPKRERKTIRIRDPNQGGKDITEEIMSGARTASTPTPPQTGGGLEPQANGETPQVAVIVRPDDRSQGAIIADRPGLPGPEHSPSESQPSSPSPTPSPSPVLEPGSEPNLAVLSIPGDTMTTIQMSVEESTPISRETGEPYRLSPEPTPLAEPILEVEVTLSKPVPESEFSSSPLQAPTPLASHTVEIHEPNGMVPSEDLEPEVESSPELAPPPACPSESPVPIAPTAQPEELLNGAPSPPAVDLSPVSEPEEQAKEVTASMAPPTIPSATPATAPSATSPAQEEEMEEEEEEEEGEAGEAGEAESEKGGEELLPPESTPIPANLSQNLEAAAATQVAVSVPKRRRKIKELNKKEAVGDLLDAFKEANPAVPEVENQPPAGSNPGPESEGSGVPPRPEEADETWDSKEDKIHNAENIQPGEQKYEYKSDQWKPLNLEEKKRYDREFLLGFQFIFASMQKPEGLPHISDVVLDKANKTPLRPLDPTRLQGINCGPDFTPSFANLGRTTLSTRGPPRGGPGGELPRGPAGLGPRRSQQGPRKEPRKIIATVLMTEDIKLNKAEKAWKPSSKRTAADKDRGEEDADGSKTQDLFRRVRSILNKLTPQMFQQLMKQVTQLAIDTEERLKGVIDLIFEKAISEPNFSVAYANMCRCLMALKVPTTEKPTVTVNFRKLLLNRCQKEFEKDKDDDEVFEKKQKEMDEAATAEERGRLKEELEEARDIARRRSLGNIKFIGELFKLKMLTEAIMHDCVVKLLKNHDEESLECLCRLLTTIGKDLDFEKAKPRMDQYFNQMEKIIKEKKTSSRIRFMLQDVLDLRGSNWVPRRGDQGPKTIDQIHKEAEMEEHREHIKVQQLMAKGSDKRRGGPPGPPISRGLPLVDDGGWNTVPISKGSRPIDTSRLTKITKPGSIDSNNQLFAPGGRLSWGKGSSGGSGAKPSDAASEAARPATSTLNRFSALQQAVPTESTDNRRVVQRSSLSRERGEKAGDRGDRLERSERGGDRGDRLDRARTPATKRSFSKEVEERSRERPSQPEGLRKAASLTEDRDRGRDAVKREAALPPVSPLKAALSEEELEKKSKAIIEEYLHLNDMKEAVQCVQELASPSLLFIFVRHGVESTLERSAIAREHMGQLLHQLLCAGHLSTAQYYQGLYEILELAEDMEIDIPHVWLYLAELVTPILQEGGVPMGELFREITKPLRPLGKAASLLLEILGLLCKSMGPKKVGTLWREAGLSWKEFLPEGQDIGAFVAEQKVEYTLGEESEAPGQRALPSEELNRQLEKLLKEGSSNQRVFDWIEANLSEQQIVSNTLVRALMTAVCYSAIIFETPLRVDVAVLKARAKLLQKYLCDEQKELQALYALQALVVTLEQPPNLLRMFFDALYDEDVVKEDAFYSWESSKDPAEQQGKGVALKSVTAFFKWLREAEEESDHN
UniProt O95208: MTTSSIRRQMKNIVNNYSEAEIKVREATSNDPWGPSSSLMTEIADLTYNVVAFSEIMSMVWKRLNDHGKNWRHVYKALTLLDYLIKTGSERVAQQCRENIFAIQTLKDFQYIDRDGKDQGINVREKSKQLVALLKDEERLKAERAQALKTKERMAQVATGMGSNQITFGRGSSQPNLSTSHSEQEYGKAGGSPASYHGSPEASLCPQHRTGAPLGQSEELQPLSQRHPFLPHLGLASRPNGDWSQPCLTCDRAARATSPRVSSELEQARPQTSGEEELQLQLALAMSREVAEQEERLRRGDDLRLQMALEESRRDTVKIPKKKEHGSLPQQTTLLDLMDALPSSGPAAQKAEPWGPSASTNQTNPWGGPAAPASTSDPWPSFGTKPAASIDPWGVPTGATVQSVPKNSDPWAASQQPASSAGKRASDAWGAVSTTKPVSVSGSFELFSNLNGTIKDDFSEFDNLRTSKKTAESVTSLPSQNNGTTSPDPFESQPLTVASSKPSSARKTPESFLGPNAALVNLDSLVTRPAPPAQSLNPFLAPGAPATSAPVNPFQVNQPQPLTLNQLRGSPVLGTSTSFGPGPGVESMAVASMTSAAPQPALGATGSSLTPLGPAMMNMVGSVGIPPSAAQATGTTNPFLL

Key:
Test in all cases: log2 fold change, soluble protein after heating vs DMSO (PISA); higher = thermal stabilisation; K562 lysate, 10 uM; active = over 0.2 and 3.5 SD of the protein, either way, in both replicates (recomputed)
[1] = compound: CCCS(=O)(=O)Nc1ccc(F)c(C(=O)c2c[nH]c3ncc(-c4ccc(Cl)cc4)cc23)c1F [vemurafenib]
How it was run: (§1)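 To prepare the extract, K562 pellets were dounce-homogenised in PBS pH 7.4 with 1 mM MgCl2, giving crude material at 1 mg/mL protein. This was treated with 10 μM compound for 30 min, then heated in aliquots for 3 min over 48°C-58°C before pooling and addition of NP-40 to 0.5% at 4°C. Centrifugation at 21,000xg for 90 min left soluble protein in the supernatant, which TMTpro 16plex LC-MS/MS quantified with equalised channel sums. Results are log-two fold changes in thermal stability compared with solvent controls, from duplicates.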

[2] = compound: CCCS(=O)(=O)Nc1ccc(F)c(C(=O)c2c[nH]c3ncc(Cl)cc23)c1F
How it was run: as §1

[3] = compound: CCN(CCCOc1ccc2c(Nc3cc(CC(=O)Nc4cccc(F)c4)[nH]n3)ncnc2c1)CCOP(=O)(O)O [barasertib]
How it was run: as §1

[4] = compound: CC[C@@H]1C(=O)N(C)c2cnc(Nc3ccc(C(=O)NC4CCN(C)CC4)cc3OC)nc2N1C1CCCC1
How it was run: as §1

[5] = compound: CC[C@@H]1C(=O)N(C)c2cnc(Nc3ccc(C(=O)N[C@H]4CC[C@H](N5CCN(CC6CC6)CC5)CC4)cc3OC)nc2N1C(C)C [volasertib]
How it was run: as §1

[6] = compound: CCn1c(C(=O)N(C2CC2)C2CC2)cc2c3c(ncn3C)c(Nc3cc(C)n(C)n3)nc21
How it was run: as §1

[7] = compound: CCn1cc(-c2ccnc3[nH]c(-c4cccc(CN(C)C)c4)cc23)c(-c2ccc(NC(=O)N(C)C)cc2)n1
How it was run: as §1

[8] = compound: CN1CCC(CNc2ccc3ncc(-c4cccc(OC(F)(F)F)c4)n3n2)CC1
How it was run: as §1

[9] = compound: CN1CCN(CCOc2cc(OC3CCOCC3)c3c(Nc4c(Cl)ccc5c4OCO5)ncnc3c2)CC1 [saracatinib]
How it was run: as §1

[10] = compound: CN1CCN(c2nc(C3=C(c4c[nH]c5ccccc45)C(=O)NC3=O)c3ccccc3n2)CC1 [sotrastaurin]
How it was run: as §1

[11] = compound: CN1CC[C@H](c2c(O)cc(O)c3c(=O)cc(-c4ccccc4Cl)oc23)[C@H](O)C1 [alvocidib]
How it was run: as §1

[12] = compound: CN1CCc2c(c3ccccc3n2Cc2ccc(C(=O)NO)cc2)C1 [Tubastatin A]
How it was run: as §1

[13] = compound: CNC(=O)C1=CC=CC=C1NC2=NC(=NC=C2Cl)NC3=C(C=C(C=C3)N4CCOCC4)OC
How it was run: as §1

[14] = compound: CNC(=O)c1ccc(Nc2ncc(C(F)(F)F)c(NCc3nccnc3N(C)S(C)(=O)=O)n2)cc1 [defactinib]
How it was run: as §1

[15] = compound: CNc1nc(-c2ccc3c(N)n[nH]c3c2)cc(N2C[C@@H](C(=O)NC3CCCCC3)CC[C@H]2C)n1
How it was run: as §1

[16] = compound: COC(=O)N[C@@H](C)CNc1nccc(-c2cn(C(C)C)nc2-c2cc(Cl)cc(NS(C)(=O)=O)c2F)n1 [encorafenib]
How it was run: as §1

[17] = compound: COC(=O)[C@H](CCSC)NC(=O)C1=C(C=C(C=C1)NC[C@H](CS)N)C2=CC=CC=C2
How it was run: as §1

[18] = compound: COc1cc(Nc2ncc3c(n2)-c2ccc(Cl)cc2C(c2c(F)cccc2OC)=NC3)ccc1C(=O)O [alisertib]
How it was run: as §1

[19] = compound: COc1cc2nc(-c3cc(F)ccc3O)nc(N[C@@H]3CNC[C@H]3C(C)(C)O)c2cc1OC
How it was run: as §1

[20] = compound: COc1cc2ncnc(Nc3ccc(F)c(Cl)c3)c2cc1OCCCN1CCOCC1 [gefitinib]
How it was run: as §1

Target | log2 fold change [1] | log2 fold change [2] | log2 fold change [3] | log2 fold change [4] | log2 fold change [5] | log2 fold change [6] | log2 fold change [7] | log2 fold change [8] | log2 fold change [9] | log2 fold change [10] | log2 fold change [11] | log2 fold change [12] | log2 fold change [13] | log2 fold change [14] | log2 fold change [15] | log2 fold change [16] | log2 fold change [17] | log2 fold change [18] | log2 fold change [19] | log2 fold change [20]
ELP5 isoform 4 (UniProt Q8TE02) | inactive: -0.025 | inactive: 0 | inactive: 0.004 | inactive: 0.116 | inactive: 0.003 | inactive: -0.028 | inactive: -0.025 | inactive: 0.019 | inactive: -0.046 | inactive: 0.025 | inactive: -0.015 | inactive: 0.034 | inactive: 0.007 | inactive: -0.062 | inactive: 0.051 | inactive: 0.033 | inactive: -0.114 | inactive: 0.056 | inactive: 0.029 | inactive: -0.006
EIPR1 (UniProt Q53HC9) | inactive: -0.003 | inactive: -0.035 | inactive: 0.06 | inactive: 0.006 | inactive: -0.007 | inactive: 0.015 | inactive: 0.101 | inactive: 0.037 | inactive: -0.054 | inactive: 0.03 | inactive: -0.053 | inactive: 0.023 | inactive: -0.002 | inactive: -0.007 | inactive: 0.006 | inactive: 0.029 | inactive: -0.002 | inactive: -0.054 | inactive: 0.007 | inactive: 0.011
EMC10 (UniProt Q5UCC4) | inactive: 0.059 | inactive: 0.019 | inactive: 0.097 | inactive: -0.028 | inactive: 0 | inactive: 0.003 | inactive: -0.241 | inactive: 0.18 | inactive: 0.004 | inactive: -0.045 | inactive: -0.096 | inactive: 0.113 | inactive: -0.004 | inactive: 0.006 | inactive: -0.018 | inactive: -0.033 | inactive: -0.113 | inactive: -0.033 | inactive: -0.048 | inactive: 0.046
EP400P1 isoform 6 (UniProt Q6ZTU2) | inactive: 0.146 | inactive: 0.067 | inactive: 0.006 | inactive: 0.001 | inactive: -0.022 | inactive: 0.013 | inactive: -0.032 | inactive: 0.107 | inactive: 0.082 | inactive: 0.049 | inactive: 0.079 | inactive: 0.045 | inactive: -0.017 | inactive: -0.139 | inactive: 0.07 | inactive: -0.032 | inactive: 0.033 | inactive: -0.01 | inactive: 0.009 | inactive: 0.014
EPM2AIP1 (UniProt Q7L775) | inactive: -0.014 | inactive: -0.017 | inactive: 0.008 | inactive: -0.076 | inactive: 0.021 | inactive: 0.009 | inactive: -0.039 | inactive: 0.018 | inactive: -0.004 | inactive: 0.03 | inactive: 0.017 | inactive: -0.006 | inactive: 0.053 | inactive: -0.019 | inactive: 0.002 | inactive: 0.002 | inactive: -0.004 | inactive: 0.03 | inactive: -0.021 | inactive: 0.013
EIF5A isoform 2 (UniProt P63241) | inactive: -0.01 | inactive: -0.019 | inactive: -0.004 | inactive: 0.05 | inactive: 0.036 | inactive: -0.049 | inactive: 0.088 | inactive: -0.029 | inactive: -0.022 | inactive: -0.039 | inactive: 0.014 | inactive: 0.014 | inactive: -0.025 | inactive: -0.017 | inactive: 0.026 | inactive: -0.014 | inactive: -0.04 | inactive: 0.005 | inactive: 0.003 | inactive: -0.049
EIF4G2 (UniProt P78344) | inactive: 0.008 | inactive: -0.025 | inactive: 0.066 | inactive: -0.031 | inactive: -0.012 | inactive: 0.07 | inactive: -0.017 | inactive: -0.01 | inactive: 0.031 | inactive: -0.034 | inactive: 0.013 | inactive: -0.09 | inactive: -0.001 | inactive: 0.033 | inactive: -0.036 | inactive: 0.067 | inactive: 0.048 | inactive: 0.028 | inactive: 0.008 | inactive: 0.004
EPCAM (UniProt P16422) | inactive: 0.038 | inactive: -0.005 | inactive: 0.005 | inactive: 0.005 | inactive: 0.037 | inactive: -0.046 | inactive: 0 | inactive: -0.007 | inactive: 0.015 | inactive: 0.077 | inactive: 0.004 | inactive: 0.046 | inactive: -0.012 | inactive: -0.038 | inactive: 0.01 | inactive: 0.032 | inactive: -0.076 | inactive: 0.008 | inactive: -0.055 | inactive: 0.028
EP400 isoform 5 (UniProt Q96L91) | inactive: -0.021 | inactive: -0.007 | inactive: -0.015 | inactive: 0.044 | inactive: -0.042 | inactive: -0.023 | inactive: -0.007 | inactive: 0.011 | inactive: 0.01 | inactive: -0.012 | inactive: 0.015 | inactive: -0.022 | inactive: 0.037 | inactive: 0.01 | inactive: 0.035 | inactive: -0.028 | inactive: 0.068 | inactive: 0.004 | inactive: 0.023 | inactive: -0.055
EPHB4 (UniProt P54760) | inactive: 0.084 | inactive: 0 | inactive: 0.102 | inactive: 0.015 | inactive: -0.129 | inactive: 0.019 | inactive: 0.018 | inactive: -0.012 | inactive: 0.039 | inactive: -0.098 | inactive: -0.004 | inactive: -0.012 | inactive: 0.003 | inactive: 0.047 | inactive: -0.036 | inactive: -0.043 | inactive: -0.18 | inactive: 0.012 | inactive: 0.058 | 
ENO1, A0A2R8YEM5 | inactive: -0.03 | inactive: -0.017 | inactive: -0.056 | inactive: 0.008 | inactive: 0.004 | inactive: -0.04 | active: -0.44 | active: 0.325 | inactive: 0.031 | inactive: -0.011 | inactive: -0.256 | inactive: 0.104 | inactive: 0.021 | inactive: 0.043 | inactive: 0.002 | inactive: 0.031 | inactive: -0.035 | inactive: 0.006 | inactive: -0.001 | inactive: 0.035
ELOC (UniProt Q15369) | inactive: 0.022 | inactive: 0.015 | inactive: 0.137 | inactive: -0.036 | inactive: 0.027 | inactive: 0 | inactive: -0.041 | inactive: -0.057 | inactive: 0.024 | inactive: -0.04 | inactive: 0.095 | inactive: -0.015 | inactive: 0.034 | inactive: 0.043 | inactive: 0.051 | inactive: -0.019 | inactive: 0.007 | inactive: 0.023 | inactive: -0.046 | inactive: -0.083
ENDOD1 (UniProt O94919) | inactive: 0.026 | inactive: -0.024 | inactive: 0.192 | inactive: -0.002 | inactive: 0.027 | inactive: 0.004 | inactive: 0.081 | inactive: -0.03 | inactive: -0.015 | inactive: 0.075 | inactive: 0.068 | inactive: 0.062 | inactive: -0.01 | inactive: 0.008 | inactive: 0.008 | inactive: 0.029 | inactive: -0.003 | inactive: -0.055 | inactive: 0.033 | inactive: 0.101
ELP4 (UniProt Q96EB1) | inactive: 0.015 | inactive: -0.013 | inactive: -0.073 | inactive: 0.046 | inactive: -0.004 | inactive: -0.015 | inactive: 0.001 | inactive: 0.029 | inactive: 0.01 | inactive: 0.021 | inactive: -0.029 | inactive: -0.022 | inactive: 0.022 | inactive: 0.032 | inactive: 0.072 | inactive: 0.033 | inactive: -0.03 | inactive: -0.003 | inactive: 0.002 | inactive: -0.006
EIF4G1 (UniProt Q04637) | inactive: -0.006 | inactive: -0.01 | inactive: 0.005 | inactive: -0.011 | inactive: -0.032 | inactive: -0.002 | inactive: 0.021 | inactive: -0.04 | inactive: 0.005 | inactive: -0.011 | inactive: 0.002 | inactive: -0.053 | inactive: 0.002 | inactive: 0.006 | inactive: -0.008 | inactive: 0.02 | inactive: 0.053 | inactive: -0.003 | inactive: 0.007 | inactive: -0.009
EPN2 (UniProt O95208) | inactive: 0.019 | inactive: 0.027 | inactive: 0.043 | inactive: 0.044 | inactive: 0.016 | inactive: -0.002 | active: -0.417 | inactive: 0.08 | inactive: 0.004 | inactive: 0.002 | inactive: -0.079 | inactive: -0.008 | inactive: 0.001 | inactive: 0.005 | inactive: 0.009 | inactive: 0.016 | inactive: -0.051 | inactive: 0.002 | inactive: 0.03 | inactive: -0.014
